For two molecules, binding results are on record in paper PMC12969390.

No constants are given. Whether binding was seen depends on the method and setting. Some entries that bind do so weakly or less than the wild type. For some assays here: Sequences can lack the tags named with a protein.

Assay [1] addresses 3xFLAG-tagged TAF12L (C. albicans). In words: RNA immunoprecipitation with qPCR (RIP); FLAG-tagged bait precipitated on anti-FLAG M2 beads from polysome-containing extracts of cells treated with 1 mg/ml cycloheximide, compared with puromycin-treated extracts; the partner's mRNA measured by RT-qPCR as a sign of its nascent chain. Background: Quantitative PCR measures a nucleic acid by following its amplification.

The next assay deals with T1, TAF12-FLAG (C. albicans) (UniProt Q5ADM2).
T1 sequence: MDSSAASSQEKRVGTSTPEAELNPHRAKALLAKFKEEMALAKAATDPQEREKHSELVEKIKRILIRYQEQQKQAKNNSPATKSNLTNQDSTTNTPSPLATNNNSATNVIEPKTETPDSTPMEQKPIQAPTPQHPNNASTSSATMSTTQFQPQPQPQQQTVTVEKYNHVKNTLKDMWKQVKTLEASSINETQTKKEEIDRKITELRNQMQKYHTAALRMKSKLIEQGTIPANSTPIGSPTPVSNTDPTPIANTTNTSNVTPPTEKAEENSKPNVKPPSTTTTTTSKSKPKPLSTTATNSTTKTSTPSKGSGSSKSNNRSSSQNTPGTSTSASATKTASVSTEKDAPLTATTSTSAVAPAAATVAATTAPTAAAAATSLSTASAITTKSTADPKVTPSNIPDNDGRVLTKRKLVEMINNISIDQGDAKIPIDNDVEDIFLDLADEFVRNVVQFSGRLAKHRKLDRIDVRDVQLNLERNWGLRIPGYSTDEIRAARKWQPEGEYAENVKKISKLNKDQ
Described as above.

B1: nascent ribosome-associated Ada1 (protein, UniProt Q5AEG1 1-490)
chain: MTSQIADGSSTTTINPLKNGLAALKPTHQAHGTSTTTHLTNGSPKKIKSYKRLELERLIREFQNKLGKNWEKYHETLSLFLIGKLSRAELISTITPILKGKNLLKYHNKLLLLNFANSLKDNSSDLSTEFAGFWNKKAGKVTKNKNTQFERFKSVIMGLPVKERKRIIDISRDSGKKGKIATDIILTRHAILPKIPMIQDKEQQQLQVNNLVQWQQDVLNGINTPIATENYEIPDYDNLSRMMLMIMREHGLTGGLNPGVMEVMLLGLESHLKNIVETAIDVAKYRKNKYTNDNYIPYIKPNEDAQNISNENALPSSKDITLCIEDLHDTLEMYPHLVESEGPKLRLSNVMLENDDMINDDLNYYLPPKSIEYLAKERQAATTNDASTGTTKPGNNKGSSAGGSSAGATTNSPVVNKTDSTAAVSEKTDTNQPLQTPTATQTPVQTSAQAPASAPAQTPAPVSTPILRPDAHIGTTDELKWVLHDLVSTM
As to B1, the binding result in assay [1] is listed as “binds”.

B2: nascent TAF4 (protein, UniProt Q59U67 1-363)
chain: MTSTPQESSNLKRQLENSEDSSSPNKKSKTETTTENQSSWESDFNSLPVELLQTETNGTSPAPAPATPIDTTNVSNSKERDQDTSKLNDAIAAAGVDIQQEEEILLQQQLNRKSAEGMASNLKSVIRSSKSPPFLHNYHLAAFIDKVAKQNGIQQNFLMDGEMLELISAACETWLSNLATKTIILSRHRRRGIPVINKKSGSSSVPRSEISKELRSLALKQKEMEEKRVNKRVMLGLEKSTKDASKNDENGESKAGAEETLHRAANATAAMMTMNPGRKKYSWMTSSATAGGGSDFGKSSGGSSKDSGKHQSPIISVRGDNGLRFREIRSGNSIIMKDLLGAIEDEKMGTRNAVIKGYAKLKD
Consider B2, for which the binding entry in the assay with TAF12-FLAG (C. albicans) is recorded as “binds”.
